The list shows only some results of the screen, not a fair sample: it gathers tests that were run many times, whatever their T/C, doses with no T/C, and many T/C values between a quarter and a half above the control. Other doses and runs of a compound stand elsewhere. T/C: endpoint of the treated group in % of that of the vehicle group. Some entries give survivors of the animals treated and no T/C: the source files T/C as zero there, which appears to mark a toxic dose or a test without result, not a measured value. Some doses without a T/C left all or most animals alive at the check, yet need not have been tolerated: the source hardly ever lists a survival T/C far under the control, and the zero likely stands for such cases as well. Survivors were counted at the toxicity check, usually on the fifth day, unless a day is given; later deaths do not show. Schedule codes are those of the source, taken here to give the interval after Q, in days (D) or hours (H), and the number of doses after X. Some doses were run more than once; their values stand side by side, smallest first. Where survival is the endpoint, the PubChem record calls one and a half times the control and up active, and a quarter to a half above the control has no call in these data; cut-offs in other NCI protocols can differ. Some T/C values carry the count of animals alive at the toxicity check (mostly the fifth day); where none is given, no animal had died by that day. Additions like (4×) stand for listed records that agree.
Tested on: P388 leukemia ip, CD2F1 mice, survival T/C
Assay: NCI In Vivo Anticancer Drug Screen. Data for tumor model P388 Leukemia (intraperitoneal) in CD2F1 (CDF1) mice
Details: T/C endpoint: median survival time, higher T/C = longer survival
[1] = dose: 100.0 mg/kg/injection, schedule: Q01DX009 (ip), vehicle: Klucel (hydroxypropylcellulose) (HPC)
[2] = dose: 25.0 mg/kg/injection, schedule: Q01DX009 (ip), vehicle: saline
[3] = dose: 50.0 mg/kg/injection, schedule: Q01DX009 (ip), vehicle: saline
[4] = dose: 200.0 mg/kg/injection, schedule: Q04DX003 (ip), vehicle: saline with Tween-80
[5] = dose: 100.0 mg/kg/injection, schedule: Q01DX009 (ip), vehicle: distilled water + Tween-80
[6] = dose: 200.0 mg/kg/injection, schedule: Q01DX009 (ip), vehicle: saline
[7] = dose: 400.0 mg/kg/injection, schedule: Q01DX009 (ip), vehicle: saline
[8] = dose: 12.5 mg/kg/injection, schedule: Q01DX009 (ip), vehicle: water
[9] = dose: 25.0 mg/kg/injection, schedule: Q01DX009 (ip), vehicle: saline with Tween-80
[10] = dose: 25.0 mg/kg/injection, schedule: Q01DX009 (ip), vehicle: water
[11] = dose: 50.0 mg/kg/injection, schedule: Q01DX009 (ip), vehicle: saline with Tween-80
[12] = dose: 50.0 mg/kg/injection, schedule: Q01DX009 (ip), vehicle: water
[13] = dose: 100.0 mg/kg/injection, schedule: Q01DX009 (ip), vehicle: saline with Tween-80
[14] = dose: 100.0 mg/kg/injection, schedule: Q01DX009 (ip), vehicle: water
[15] = dose: 200.0 mg/kg/injection, schedule: Q01DX009 (ip), vehicle: saline with Tween-80
[16] = dose: 200.0 mg/kg/injection, schedule: Q01DX009 (ip), vehicle: water
[17] = dose: 240.0 mg/kg/injection, schedule: Q01DX005 (ip), vehicle: saline with Tween-80

## CC(=O)OCC1OC(OC2=C(CC=C(C)C)C(=O)c3ccccc3C2=O)C(OC(C)=O)C(OC(C)=O)C1OC(C)=O (centres undefined)
dose: 50.0 mg/kg/injection, schedule: Q01DX009 (ip), vehicle: Klucel (hydroxypropylcellulose) (HPC)
  T/C: 126 and 132 % of control
[1]
  T/C: 125 % of control
  survivor count: 3 of 6
dose: 200.0 mg/kg/injection, schedule: Q01DX009 (ip), vehicle: Klucel (hydroxypropylcellulose) (HPC)
  survivor count: 5 of 6 and 6 of 6

## CN(C)CCNC1=C(Cl)C(=O)c2ccccc2C1=O
[2]
  survivor count: 1 of 6
[3]
  survivor count: 0 of 6

## CN(c1ccccc1)C1C2=C(CCCC2)OC(=O)C12SCCCS2 (centres undefined)
[4]
  T/C: 139 % of control
  survivor count: 3 of 6

## CC1=C(C)C(N(C)C)CS(=O)(=O)O1 (centres undefined)
dose: 200.0 mg/kg/injection, schedule: Q01DX005 (ip), vehicle: Klucel (hydroxypropylcellulose) (HPC)
  survivor count: 1 of 6

## CNC(=O)OCc1nn(-c2ccc(Cl)c(Cl)c2)c(C)c1COC(=O)NC
dose: 50.0 mg/kg/injection, schedule: Q01DX009 (ip), vehicle: distilled water + Tween-80
  survivor count: 6 of 6
[5]
  survivor count: 6 of 6

## Cc1ccc(S(=O)(=O)N=S(=O)(CCCl)CCCl)cc1
dose: 100.0 mg/kg/injection, schedule: Q04DX003 (ip), vehicle: suspension in saline
  survivor count: 0 of 6
dose: 200.0 mg/kg/injection, schedule: Q04DX003 (ip), vehicle: suspension in saline
  survivor count: 0 of 6
dose: 400.0 mg/kg/injection, schedule: Q04DX003 (ip), vehicle: suspension in saline
  survivor count: 0 of 6

## CC(=O)N[C@@H](Cc1ccc(N(CCCl)CCCl)cc1)C(=O)ON1C(=O)CCC1=O
dose: 1.45 mg/kg/injection, schedule: Q01DX009 (ip), vehicle: saline
  T/C: 127 % of control
dose: 1.45 mg/kg/injection, schedule: Q03HX008 (ip), vehicle: saline
  T/C: 135 % of control
dose: 2.9 mg/kg/injection, schedule: Q01DX009 (ip), vehicle: saline
  T/C: 140 % of control
dose: 2.9 mg/kg/injection, schedule: Q03HX008 (ip), vehicle: saline
  T/C: 145 % of control
dose: 46.4 mg/kg/injection, schedule: Q03HX008 (ip), vehicle: saline
  survivor count: 7 of 10

## Cc1ccc(NC(=O)OCCN(C)C(=O)Nc2ccc(C)cc2C)c(C)c1
dose: 120.0 mg/kg/injection, schedule: Q01DX005 (ip), vehicle: Klucel (hydroxypropylcellulose) (HPC)
  survivor count: 6 of 6

## O=S(=O)(O)c1ccc(-c2ccc(S(=O)(=O)O)cc2)cc1 (tested in a mixture with another compound)
dose: 100.0 mg/kg/injection, schedule: Q04DX003 (ip), vehicle: saline sonified
  survivor count: 6 of 6
dose: 200.0 mg/kg/injection, schedule: Q04DX003 (ip), vehicle: saline sonified
  survivor count: 5 of 6

## COc1cc(N=Nc2ccc([N+](=O)[O-])cc2)c([OH+]C)cc1[N+]#N.COc1cc(N=Nc2ccc([N+](=O)[O-])cc2)c([OH+]C)cc1[N+]#N.[Cl][Zn][Cl]
[6]
  T/C: 127 % of control
[7]
  survivor count: 2 of 6

## O=C1NC(=O)C2C3C=CC(C12)C1C2C(=O)NC(=O)C2C31 (centres undefined)
dose: 12.5 mg/kg/injection, schedule: Q01DX009 (ip), vehicle: saline with Tween-80
  T/C: 104, 108, 110, 111, 117, 119, 121, 126, 129 % of control
[8]
  T/C: 97, 101, 108, 109 (2×), 111 (2×), 112 (2×), 117, 128, 142 % of control
  survivor count: 4 of 6 and 6 of 6
dose: 18.0 mg/kg/injection, schedule: Q01DX009 (ip), vehicle: water
  T/C: 133 % of control
[9]
  T/C: 115, 120, 122, 123, 129, 130, 133, 136 (2×), 138 (2×), 139, 141, 142 (2×), 144, 149, 163 % of control
[10]
  T/C: 115 (2×), 117, 118, 119, 122, 125, 126 (3×), 129, 130 (2×), 132, 132 [5 of 6 alive], 136, 144, 145, 147 (2×), 152, 153, 160, 165, 174 % of control
  survivor count: 3 of 6 and 4 of 6
[11]
  T/C: 127, 130, 140, 142, 144, 145, 150, 152, 155, 162 (2×), 163, 168, 170, 172, 174, 175, 176, 177, 206 % of control
[12]
  T/C: 86 [5 of 6 alive], 92, 94, 104 [5 of 6 alive], 107, 107 [5 of 6 alive], 118, 129 [5 of 6 alive], 148 (2×), 168 [5 of 6 alive], 171, 175, 180, 189, 191, 192, 199, 200, 203, 205, 207, 209, 215, 219 % of control
  survivor count: 0 of 6 and 6 of 6
dose: 83.3 mg/kg/injection, schedule: Q01DX009 (ip), vehicle: water
  survivor count: 3 of 6
[5]
  survivor count: 4 of 5
[13]
  T/C: 94, 100, 107, 111 [5 of 6 alive], 140, 141, 147, 152 (2×), 156, 158, 170, 177 [5 of 6 alive], 179 (2×), 181, 198, 203 % of control
  survivor count: 5 of 6 and 6 of 6
[14]
  T/C: 127 and 184 % of control
  survivor count: 0 of 6, 1 of 6, 2 of 6, 3 of 6, 4 of 6
dose: 138.9 mg/kg/injection, schedule: Q01DX009 (ip), vehicle: water
  survivor count: 0 of 6
dose: 200.0 mg/kg/injection, schedule: Q01DX009 (ip), vehicle: distilled water + Tween-80
  survivor count: 0 of 5
[15]
  T/C: 90 [5 of 6 alive], 124, 158 [4 of 6 alive], 161, 175 % of control
  survivor count: 0 of 6, 1 of 6, 3 of 6, 4 of 6, 5 of 6, 6 of 6
[16]
  T/C: 151 % of control
  survivor count: 0 of 6

## CC(C)(C#N)NCCNC(C)(C)C#N
dose: 25.0 mg/kg/injection, schedule: Q01DX001 (ip), vehicle: saline
  survivor count: 0 of 6 and 1 of 6
dose: 50.0 mg/kg/injection, schedule: Q01DX001 (ip), vehicle: saline
  survivor count: 0 of 6
dose: 100.0 mg/kg/injection, schedule: Q01DX001 (ip), vehicle: saline
  survivor count: 0 of 6
dose: 200.0 mg/kg/injection, schedule: Q01DX001 (ip), vehicle: saline
  survivor count: 0 of 6
dose: 400.0 mg/kg/injection, schedule: Q01DX001 (ip), vehicle: saline
  survivor count: 0 of 6

## Cc1ccc(C(=O)Cc2nc(C#N)c(C#N)nc2CC(=O)c2ccc(C)cc2)cc1
[17]
  survivor count: 5 of 6

## NC(N)=O
dose: 800.0 mg/kg/injection, schedule: Q01DX009 (ip), vehicle: saline
  survivor count: 1 of 6

## S=C(NC12CC3CC(CC(C3)C1)C2)[NH][Sn]([c]1ccccc1)([c]1ccccc1)[c]1ccccc1
[9]
  survivor count: 2 of 6
[11]
  survivor count: 0 of 6

## Nc1nc(=S)ss1
[1]
  T/C: 125 % of control

## N=C1C=C[C@]2(O)C[C@H](Cl)CN12
dose: 11.88 mg/kg/injection, schedule: Q01DX009 (ip), vehicle: saline
  survivor count: 1 of 6
dose: 23.75 mg/kg/injection, schedule: Q01DX009 (ip), vehicle: saline
  survivor count: 0 of 6
dose: 47.5 mg/kg/injection, schedule: Q01DX009 (ip), vehicle: saline
  survivor count: 0 of 6
dose: 95.0 mg/kg/injection, schedule: Q01DX009 (ip), vehicle: saline
  survivor count: 0 of 6
dose: 190.0 mg/kg/injection, schedule: Q01DX009 (ip), vehicle: saline
  survivor count: 0 of 6

## O=C(C[N+](=O)[O-])OCc1ccccc1
dose: 200.0 mg/kg/injection, schedule: Q01DX009 (ip), vehicle: other
  survivor count: 3 of 6

## O=[N+]([O-])c1cccc2c(Nc3ccc(S(=O)(=O)Nc4nccs4)cc3)c3ccccc3nc12
dose: 120.0 mg/kg/injection, schedule: Q01DX005 (ip), vehicle: saline with Tween-80
  survivor count: 6 of 6
[17]
  survivor count: 6 of 6

## CNC(=O)Oc1c(C)[nH]ccc1=O
[2]
  T/C: 100 (2×), 101, 107 % of control
[3]
  T/C: 105, 107, 114, 133 % of control
dose: 100.0 mg/kg/injection, schedule: Q01DX009 (ip), vehicle: saline
  T/C: 99, 101, 102, 114 % of control
[6]
  T/C: 105 (2×), 107, 108 % of control
[7]
  survivor count: 3 of 5
